# Data published in the supplement of paper PMC4604168 (melanoma cell lines).
# The other results are listed elsewhere or left out. Many values rest on one well or one pass, so single values are uncertain.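 The apoptosis fraction was the count of cleaved-PARP antibody-stained nuclei relative to all DNA-stained nuclei, imaged in 1,536-well plates. Screening doses were set so most cells survived, and baseline and induced cleaved-PARP levels vary greatly across cell lines.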
# Test system: LB2518-MEL
# Experiment: cleaved PARP positive nuclei fraction relative to DMSO control; melanoma cells; higher = more apoptosis
# Details: library dose: low library concentration; 72 h
row,SMILES,cleaved PARP positive nuclei fraction
1,"CS(=O)(=O)c1ccc(C(=O)Nc2ccc(Cl)c(-c3ccccn3)c2)c(Cl)c1 [vismodegib] + OCc1c[nH]c2ccccc12 [Indole-3-carbinol] (first compound 1 µM, partner dose 0.8 µM)",119%
2,"COc1ccc(C2=N[C@@H](c3ccc(Cl)cc3)[C@@H](c3ccc(Cl)cc3)N2C(=O)N2CCNC(=O)C2)c(OC(C)C)c1 [Nutlin-3] + NC1(c2ccc(-c3nc4ccn5c(=O)[nH]nc5c4cc3-c3ccccc3)cc2)CCC1 [MK2206] (first compound 0.1 µM, partner dose 0.4 µM)",60.6%
3,"COc1ccc(C2=N[C@@H](c3ccc(Cl)cc3)[C@@H](c3ccc(Cl)cc3)N2C(=O)N2CCNC(=O)C2)c(OC(C)C)c1 [Nutlin-3] + Clc1ccc(Nc2nnc(Cc3ccncc3)c3ccccc23)cc1 [vatalanib] (first compound 0.1 µM, partner dose 2 µM)",121%
4,"Cn1sc(=O)n(Cc2ccccc2)c1=O + CN(c1ncccc1CNc1nc(Nc2ccc3c(c2)CC(=O)N3)ncc1C(F)(F)F)S(C)(=O)=O [PF562271] (first compound 0.4 µM, partner dose 0.08 µM)",105%
5,"Cn1cnc2c(F)c(Nc3ccc(Br)cc3Cl)c(C(=O)NOCCO)cc21 [selumetinib] + CNC(=O)c1cc(Oc2ccc(NC(=O)Nc3ccc(Cl)c(C(F)(F)F)c3)cc2)ccn1 [sorafenib] (first compound 0.015 µM, partner dose 0.4 µM)",54.7%
6,"NC1(c2ccc(-c3nc4ccn5c(=O)[nH]nc5c4cc3-c3ccccc3)cc2)CCC1 + CCCS(=O)(=O)Nc1ccc(F)c(C(=O)c2c[nH]c3ncc(Cl)cc23)c1F [PLX4720] (first compound 0.4 µM, partner dose 0.08 µM)",188%
7,"NC(=O)c1ccc(N(C(N)=O)c2c(F)cccc2F)nc1-c1ccc(F)cc1F + C#Cc1cccc(Nc2ncnc3cc(OCCOC)c(OCCOC)cc23)c1 [erlotinib] (first compound 0.4 µM, partner dose 0.8 µM)",59.4%
8,"C[C@@H](N)c1ccc(C(=O)Nc2ccnc3[nH]ccc23)cc1 + Cn1sc(=O)n(Cc2ccccc2)c1=O [TDZD-8] (first compound 0.4 µM, partner dose 0.4 µM)",92.7%
9,"CS(=O)(=O)c1ccc(C(=O)Nc2ccc(Cl)c(-c3ccccn3)c2)c(Cl)c1 [vismodegib] + CCCCCCCCc1ccc(CCC(N)(CO)CO)cc1 [fingolimod] (first compound 1 µM, partner dose 2 µM)",132%
10,"Cn1cnc2c(F)c(Nc3ccc(Br)cc3Cl)c(C(=O)NOCCO)cc21 [selumetinib] + C#Cc1cccc(Nc2ncnc3cc(OCCOC)c(OCCOC)cc23)c1 [erlotinib] (first compound 0.015 µM, partner dose 0.8 µM)",138%
11,"CC1(C)CCC(c2ccc(Cl)cc2)=C(CN2CCN(c3ccc(C(=O)NS(=O)(=O)c4ccc(N[C@H](CCN5CCOCC5)CSc5ccccc5)c(S(=O)(=O)C(F)(F)F)c4)cc3)CC2)C1 + CS(=O)(=O)CCNCc1ccc(-c2ccc3ncnc(Nc4ccc(OCc5cccc(F)c5)c(Cl)c4)c3c2)o1 [lapatinib] (first compound 0.4 µM, partner dose 0.8 µM)",130%
12,"CC1(C)CCC(c2ccc(Cl)cc2)=C(CN2CCN(c3ccc(C(=O)NS(=O)(=O)c4ccc(N[C@H](CCN5CCOCC5)CSc5ccccc5)c(S(=O)(=O)C(F)(F)F)c4)cc3)CC2)C1 + O=C(O)[C@@H]1[O][Sb](=[O])([O][Sb]2(=[O])[O][C@H]([C@H](O)CO)[C@H](O)[C@H](C(=O)O)[O]2)[O][C@H]([C@H](O)CO)[C@@H]1O [stibogluconate] (first compound 0.4 µM, partner dose 2 µM)",86.6%
13,"CC1(C)CCC(c2ccc(Cl)cc2)=C(CN2CCN(c3ccc(C(=O)NS(=O)(=O)c4ccc(N[C@H](CCN5CCOCC5)CSc5ccccc5)c(S(=O)(=O)C(F)(F)F)c4)cc3)CC2)C1 + Nc1ccn([C@@H]2O[C@H](CO)[C@@H](O)C2(F)F)c(=O)n1 [gemcitabine] (first compound 0.4 µM, partner dose 0.0004 µM)",135%

# Entries 12 to 13, quoted:
row,SMILES,cleaved PARP positive nuclei fraction
12,"CC1(C)CCC(c2ccc(Cl)cc2)=C(CN2CCN(c3ccc(C(=O)NS(=O)(=O)c4ccc(N[C@H](CCN5CCOCC5)CSc5ccccc5)c(S(=O)(=O)C(F)(F)F)c4)cc3)CC2)C1 + O=C(O)[C@@H]1[O][Sb](=[O])([O][Sb]2(=[O])[O][C@H]([C@H](O)CO)[C@H](O)[C@H](C(=O)O)[O]2)[O][C@H]([C@H](O)CO)[C@@H]1O [stibogluconate] (first compound 0.4 µM, partner dose 2 µM)",86.6%
13,"CC1(C)CCC(c2ccc(Cl)cc2)=C(CN2CCN(c3ccc(C(=O)NS(=O)(=O)c4ccc(N[C@H](CCN5CCOCC5)CSc5ccccc5)c(S(=O)(=O)C(F)(F)F)c4)cc3)CC2)C1 + Nc1ccn([C@@H]2O[C@H](CO)[C@@H](O)C2(F)F)c(=O)n1 [gemcitabine] (first compound 0.4 µM, partner dose 0.0004 µM)",135%
